## Primary screen of a compound library

From ChEMBL document CHEMBL3988442, “University of Dundee, Small-Polar-MMV Screening Library” (2021).

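Whole-cell assay for inhibitors of Mycobacterium tuberculosis growth, labelled Cornell in the record; the read-out is not stated. The concentration is filed as 10 mM, unlikely as a test dose, so the dose is not known. Higher means stronger inhibition (inferred from two other growth screens of the library). Size under these conditions: about 53,000 compounds, about 900 of them at 50% or above in at least one test.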

Values are the deposited “Percent Effect”, in %.
The controls that fix the scale are not given in the record; negative values are as filed.
The compounds are a random part of those screened.

compound,effect
Cc1cc(Br)ccc1C(=O)N(C)CCNS(C)(=O)=O,-54.78
CN1CCN(C(=O)Cc2ccc(F)cc2)Cc2cccnc21.O=C(O)C(F)(F)F,-38.23
O=C(COc1ccccc1)NCC1CCN(Cc2ccsc2)CC1,8.546
O=S(=O)(c1ccccc1)N1CCCC(c2nccs2)C1 (stereo not drawn),22.31
CN1CCC(Nc2cc(Cl)ccc2OCC(F)(F)F)C1=O (stereo not drawn),30.36
CS(=O)(=O)CCn1ccc(NC(=O)Cc2ccccc2F)n1,11.43
Cc1nc(N(C)C)nc(-c2cccc(-c3ccn(CCCO)n3)c2)c1C,18.36
CCCS(=O)(=O)c1ncc(CN2CCC(C)CC2)n1CC1CCCO1 (stereo not drawn),-8.065
Cc1ccc(C(=O)N2CCN(c3ncnc4nc(N)ccc34)CC2)o1,31.93
COc1cccc(CNC2CCCOc3cc(C)ccc32)n1 (stereo not drawn),-7.971
CC(CO)Nc1ccc(-c2nc(Cc3ccc(F)cc3)no2)cn1 (stereo not drawn),-4.936
Cc1oc(-c2ccc(Cl)cc2)nc1C(=O)NC1=NCCS1,1.258
Cc1cnn(CCC(=O)N(CC2CN(C)CCO2)c2nccs2)c1 (stereo not drawn),28.36
COCC1CCN(C(=O)c2cn(Cc3ccccc3C(F)(F)F)nn2)C1 (stereo not drawn),62.81
COCCCC(=O)Nc1[nH]nc(-c2ccncc2)c1C,-43.66
Cc1nnc(SCc2ccccn2)s1,-5.97
CCCn1ccnc1CN1CCCC1c1cccc(-n2ccnc2)n1 (stereo not drawn),-41.27
CC(=O)c1cc(CC(=O)N2CCCC2c2nc(C(C)C)no2)cs1 (stereo not drawn),12.55
COCC(=O)N1CCC(Oc2cccc(C)c2)CC1,9.003
Cc1cccc(C2CCCCN2C(=O)CCCS(C)(=O)=O)c1C (stereo not drawn),-2.009
O=C1CCC2(CCCN(C(=O)c3ccc[nH]3)C2)CN1CCc1c[nH]cn1 (stereo not drawn),10.3
O=C(NCC(O)c1cccs1)c1sccc1OC(F)F (stereo not drawn),2.792
CN1CCCC1c1ccc(N2CCOCC2)cn1 (stereo not drawn),-11.25
COCCN1CCC2(CCCN(C(=O)c3cnoc3C)C2)C1=O (stereo not drawn),-10.24
CC(=O)c1cc(C(=O)NC2(c3ccc(Br)cc3)CC2)n(C)c1,24.54
O=C(O)C(F)(F)F.O=C(O)C(F)(F)F.O=C(O)C(F)(F)F.[H][C@@]12OCCN(Cc3ccccn3)[C@@]1([H])CC[C@H]2OCCN1CCCC1,30.36
Cc1ccc(Oc2c(F)cccc2OC[C@@H](N)CC(C)C)cc1,106.4
Cc1[nH]ccc1C(=O)N[C@H]1CN(CCO)C[C@@H]1C1CC1,12.46
CC(C)Cc1cc(NC(=O)c2cc(Cl)c[nH]2)n(C)n1,26.26
CC(=O)N1CCC(c2nc3ccc(-c4cccc(F)c4)cn3n2)CC1,-12.69
CCS(=O)(=O)N1Cc2ncn(C)c2C(COCC2CCOCC2)C1.O=C(O)C(F)(F)F (stereo not drawn),42.23
[H][C@]12CN(C(=O)C3CC(F)(F)C3)C[C@@]1([H])OCCN(S(C)(=O)=O)C2,-22.45
[H][C@@]12CS(=O)(=O)C[C@]1([H])N(C(=O)Nc1ccccc1Cl)CCN2CCC,2.165
O=C(Cc1ccc2c(c1)CCCC2)NCCc1ccccn1,27.23
COc1ccnc(CN(C)C(=O)CSc2nnc(N)s2)c1,3.62
Cc1ccc(CCCC(=O)N(C)CCN2CCOCC2)cc1,-37.37
CCc1nsc(NC2CCCn3nc(CC)nc32)n1 (stereo not drawn),11.27
Cc1n[nH]c(CCC(=O)N2CCOC(Cc3ccccc3)C2)c1C (stereo not drawn),8.596
O=C1CSC(c2ccsc2)c2c(n(C3CCCC3)[nH]c2=O)N1 (stereo not drawn),17.2
Cc1ccc(CNCc2nnc3n2CC(C(F)(F)F)CC3)o1 (stereo not drawn),-0.5252
CN(C)Cc1nc(C(C)(C)NC(=O)C2CC(=O)N(CC3CC3)C2)no1 (stereo not drawn),-2.623
O=C(c1ccc2c(c1)[nH]c(=O)n2[C@H]1CC[C@H](O)CC1)N1CCOCC1,-25.53
Cc1cc(CN(C)C(=O)c2cccc(N3CCCC3=O)c2)no1,5.542
N#Cc1ccc(NCc2cccc(OCC3CCCO3)c2)nc1 (stereo not drawn),-39.96
Cc1cc(NCC2CC(=O)Nc3ccccc32)nc(C)n1 (stereo not drawn),12.03
COc1ccc(NC(=O)CSc2nncn2-n2cccc2)c(OC)c1,2.019
Cc1ccc(C)c(CC(=O)Nc2cccc(C(=O)N(C)C)n2)c1,38.53
O=C(c1ccco1)N1CCC2(CCC(=O)N2Cc2ccncc2)CC1,-5.835
N[C@H]1CN(C(=O)c2ccc(CO)cc2)C[C@@H]1C1CC1,-16.31
COC(=O)c1cccc(C(=O)N2CCCCC2CCn2ccnc2C)c1 (stereo not drawn),21.87

4 of the entries, repeated:

COc1ccc(NC(=O)CSc2nncn2-n2cccc2)c(OC)c1 gave 2.019%.
CN1CCCC1c1ccc(N2CCOCC2)cn1 (stereo not drawn) gave -11.25%.
N[C@H]1CN(C(=O)c2ccc(CO)cc2)C[C@@H]1C1CC1 gave -16.31%.
COCCN1CCC2(CCCN(C(=O)c3cnoc3C)C2)C1=O (stereo not drawn) gave -10.24%.